Test [1] has as its system SARS-CoV-2. The experiment in a line: microbe, parasite or virus in culture. Type of test: cell-based. Conditions: Severe acute respiratory syndrome coronavirus 2, HeLa-ACE2; detail block; read-out: HeLa-ACE2 CoV-2 EC50 GeoMean.
For test [2], the system named is SARS-CoV-2. The experiment in a line: microbe, parasite or virus in culture. Type of test: cell-based. Conditions: Severe acute respiratory syndrome coronavirus 2, Calu-3, read-out: Calu-3 CoV-2 EC50 GeoMean.
Test [3] deals with SARS-CoV-2. The experiment in a line: microbe, parasite or virus in culture. Format: cell-based.
Test [4] has as its system HeLa-ACE2 cells. The test is described as follows: cells. Type of test: cell-based. Conditions: Homo sapiens, HeLa-ACE2, read-out: HeLa-ACE2 TOA cell count EC50 GeoMean.
Test [5] relates to HeLa-ACE2 cells. The experiment in a line: cells. Conditions: Homo sapiens, HeLa-ACE2, read-out: HeLa-ACE2 cell count EC50 GeoMean.
Test [6] concerns Calu-3 cells. The experiment in a line: cells. Conditions: Homo sapiens, Calu-3, read-out: Calu-3 cell count EC50 GeoMean.

Counter-ions that a name gives are not always drawn. Like-named read-outs stand apart in the source and are kept apart here. Some results are limits rather than exact numbers.

Take `CN1CC2c3ccccc3Oc3ccc(Cl)cc3C2C1` (stereo not shown) [Asenapine maleate]: the EC50 in test [1] is above 2.43 µM; in test [2] it was above 9.98 µM; in test [3] (Severe acute respiratory syndrome coronavirus 2, HeLa-ACE2, read-out: HeLa-ACE2 TOA CoV-2 EC50 GeoMean) it was above 9.61 µM; in test [4], above 9.61 µM; in test [5] it was above 9.6 µM; in test [6] it was above 9.98 µM. The “TOA:HeLa-ACE2 EC50 Ratio” value in test [3] was found to be 3.958.

Source of the values: article PMC8175350, “Drug repurposing screens identify chemical entities for the development of COVID-19 interventions” (Nature Communications, 2021).
